Source: publication PMC11094951
No constants are given. Whether binding was seen depends on the method and setting. Binding seen in cells or lysates may run through a third protein. Some entries that bind do so weakly or less than the wild type.

The chains behind the UniProt entries cited, without tags or fusion partners.
UniProt P40227: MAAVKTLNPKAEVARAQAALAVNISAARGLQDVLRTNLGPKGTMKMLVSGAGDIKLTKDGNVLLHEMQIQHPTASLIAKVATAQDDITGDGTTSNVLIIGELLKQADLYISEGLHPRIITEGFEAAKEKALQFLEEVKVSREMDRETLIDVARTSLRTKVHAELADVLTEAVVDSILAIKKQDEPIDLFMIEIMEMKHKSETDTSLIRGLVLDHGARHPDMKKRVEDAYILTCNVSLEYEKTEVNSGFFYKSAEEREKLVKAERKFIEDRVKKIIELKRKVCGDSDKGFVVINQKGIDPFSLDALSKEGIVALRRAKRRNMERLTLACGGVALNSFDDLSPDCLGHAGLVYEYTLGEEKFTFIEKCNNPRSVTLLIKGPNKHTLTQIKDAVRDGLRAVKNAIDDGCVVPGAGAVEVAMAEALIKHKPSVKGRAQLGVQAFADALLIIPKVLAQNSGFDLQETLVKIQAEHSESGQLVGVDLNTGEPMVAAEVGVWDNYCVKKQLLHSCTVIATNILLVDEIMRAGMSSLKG
UniProt P42224: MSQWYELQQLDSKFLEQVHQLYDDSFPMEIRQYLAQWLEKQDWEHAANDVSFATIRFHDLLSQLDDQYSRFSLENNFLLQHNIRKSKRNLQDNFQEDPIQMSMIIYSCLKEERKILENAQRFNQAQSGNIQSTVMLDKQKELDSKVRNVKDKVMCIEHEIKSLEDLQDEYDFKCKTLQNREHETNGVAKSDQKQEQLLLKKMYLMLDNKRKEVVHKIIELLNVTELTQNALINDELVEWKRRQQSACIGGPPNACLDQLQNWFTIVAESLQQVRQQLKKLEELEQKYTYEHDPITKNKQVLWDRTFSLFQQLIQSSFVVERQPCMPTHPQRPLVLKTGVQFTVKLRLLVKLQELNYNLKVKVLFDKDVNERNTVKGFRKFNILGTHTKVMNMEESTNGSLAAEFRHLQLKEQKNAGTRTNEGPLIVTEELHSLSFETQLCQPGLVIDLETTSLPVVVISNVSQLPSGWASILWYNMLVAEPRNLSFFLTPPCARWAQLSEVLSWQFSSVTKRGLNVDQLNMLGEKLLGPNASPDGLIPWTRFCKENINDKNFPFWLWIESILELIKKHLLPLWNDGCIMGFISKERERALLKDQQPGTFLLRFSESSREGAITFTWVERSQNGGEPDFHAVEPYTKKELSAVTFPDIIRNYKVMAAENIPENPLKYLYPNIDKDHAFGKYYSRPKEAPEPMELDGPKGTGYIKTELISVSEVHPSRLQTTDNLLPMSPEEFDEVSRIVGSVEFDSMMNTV

Biological target: Chaperonin Containing TCP1 Subunit 6 A (CCT6A) (human (endogenous in A549/PC9)) (UniProt P40227)
Test: co-IP; A549/PC9 lysates in RIPA buffer, incubated overnight with primary antibody (anti-CCT6A or anti-STAT1) or IgG and Protein A/G PLUS-Agarose; beads washed with PBS; detected by Western blot

| binding | Molecule |
| --- | --- |
| binds | STAT1 (Signal Transducer and Activator of Transcription 1) (from UniProt P42224 1-750) |
| no binding | Hexokinase 2 (HK2) (enzyme, UniProt P52789 1-917) MIASHLLAYFFTELNHDQVQKVDQYLYHMRLSDETLLEISKRFRKEMEKGLGATTHPTAAVKMLPTFVRSTPDGTEHGEFLALDLGGTNFRVLWVKVTDNGLQKVEMENQIYAIPEDIMRGSGTQLFDHIAECLANFMDKLQIKDKKLPLGFTFSFPCHQTKLDESFLVSWTKGFKSSGVEGRDVVALIRKAIQRRGDFDIDIVAVVNDTVGTMMTCGYDDHNCEIGLIVGTGSNACYMEEMRHIDMVEGDEGRMCINMEWGAFGDDGSLNDIRTEFDQEIDMGSLNPGKQLFEKMISGMYMGELVRLILVKMAKEELLFGGKLSPELLNTGRFETKDISDIEGEKDGIRKAREVLMRLGLDPTQEDCVATHRICQIVSTRSASLCAATLAAVLQRIKENKGEERLRSTIGVDGSVYKKHPHFAKRLHKTVRRLVPGCDVRFLRSEDGSGKGAAMVTAVAYRLADQHRARQKTLEHLQLSHDQLLEVKRRMKVEMERGLSKETHASAPVKMLPTYVCATPDGTEKGDFLALDLGGTNFRVLLVRVRNGKWGGVEMHNKIYAIPQEVMHGTGDELFDHIVQCIADFLEYMGMKGVSLPLGFTFSFPCQQNSLDESILLKWTKGFKASGCEGEDVVTLLKEAIHRREEFDLDVVAVVNDTVGTMMTCGFEDPHCEVGLIVGTGSNACYMEEMRNVELVEGEEGRMCVNMEWGAFGDNGCLDDFRTEFDVAVDELSLNPGKQRFEKMISGMYLGEIVRNILIDFTKRGLLFRGRISERLKTRGIFETKFLSQIESDCLALLQVRAILQHLGLESTCDDSIIVKEVCTVVARRAAQLCGAGMAAVVDRIRENRGLDALKVTVGVDGTLYKLHPHFAKVMHETVKDLAPKCDVSFLQSEDGSGKGAALITAVACRIREAGQR |
